In PubChem BioAssay AID540276 (National Center for Advancing Translational Sciences (NCATS), 2011):
Screen size: about 300,000 compounds; about 5,400 (1.8%) were called active. This list was built around the results that the source calls inconclusive (neither active nor inactive); the mix of calls is not that of the screen. Calls follow the shape of the full dose curve; tested in HEK293 cells. Potencies beside an inconclusive call are fits to weak or partial responses and may not hold up.

Assay: qHTS for inhibitors of binding or entry into cells for Marburg Virus
Details: Marburg virus pseudotyped entry inhibition, cell reporter; activity change, negative = inhibition: at 37.8 µM (top of the series) unless noted
% is scaled to controls: 0 for no effect and ±100 for the full control effect; potency is read from the fitted curve at half-maximal effect.

For `CC1CCN(C(=O)CSc2nnc(-c3cccs3)o2)CC1`, which Potency is on record?
The Potency was inconclusive: 8.91 µM [activator, partial curve, poor fit].

With `O=C(Nc1cccc(OCc2cc(=O)n3c4c(sc3n2)CCCC4)c1)c1ccc(F)cc1` as the molecule, how does the “activity change, negative = inhibition” value read?
The value was inactive: -1.81% [at 46.1 µM].

Which Potency does the source give for `COCCn1c(SCc2nc(N)nc(Nc3ccccc3C)n2)nc2ccccc2c1=O` here?
The Potency was inconclusive: 23.1 µM [inhibitor, partial curve, poor fit].

With `CCOc1ccc(-n2c(SCC(=O)Nc3ccc(OC)cc3)nc3c(c2=O)SCC3)cc1` as the molecule, how does the Potency read?
Its Potency is “inactive”.

With `COc1ccccc1CN(C)CC(=O)Nc1ccccc1-c1ccccc1` as the molecule, how does the Potency read?
Its Potency is inconclusive: 17.8 µM [inhibitor, partial curve, poor fit].

For `Cc1cccc(N2CCN(S(=O)(=O)c3cccc4nonc34)CC2)c1C`, which Potency is on record?
Its Potency is inconclusive: 5.01 µM [inhibitor, full curve, poor fit].

Which Potency does the source give for `COc1ccc(CCNC(=O)CCCn2c(=O)c3ccccc3n(CC(=O)Nc3cc(Cl)ccc3C)c2=O)cc1OC` here?
The Potency was inconclusive: 6.31 µM [inhibitor, single point].

For `CCOc1ccccc1NC(=O)Cn1c(=O)n(-c2ccc(F)cc2)c(=O)c2sc3ccccc3c21`, which Potency is on record?
The Potency was inconclusive: 0.794 µM [activator, full curve, poor fit].

With `CCOc1ccccc1OCCOCCN1CCN(Cc2ccccc2)CC1` as the molecule, how does the Potency read?
Its Potency is inconclusive: 35.5 µM [inhibitor, single point].

With `CCOc1cc(/C=N/NC(=O)CCc2n[nH]c(=O)[nH]c2=O)ccc1O` as the molecule, how does the Potency read?
Its Potency is inconclusive: 8.91 µM [activator, partial curve, poor fit].

For `COc1ccc(NC(=O)Cc2coc3cc(C)ccc23)cc1S(=O)(=O)N1CCOCC1`, which Potency is on record?
Its Potency is inconclusive: 6.31 µM [inhibitor, single point].

Which Potency does the source give for `Cc1nn(CC(=O)Nc2cccc(S(N)(=O)=O)c2)c(C)c1[N+](=O)[O-]` here?
The Potency was inconclusive: 6.51 µM [activator, single point].

Which Potency does the source give for `COc1cccc(C(=O)NC(=S)Nc2ccccc2N2CCOCC2)c1` here?
The Potency was inconclusive: 35.5 µM [inhibitor, single point].

For `COCCNCC1C(Oc2ccc(Cl)cc2)C(=O)N1c1ccccc1C` (stereo not drawn), which Potency is on record?
Its Potency is inconclusive: 2.51 µM [inhibitor, partial curve, poor fit].

For `CN(Cc1ccccc1Cl)C(=O)c1cc2ccccc2o1`, which “activity change, negative = inhibition” value is on record?
Its value is inactive: 8.15% [at 46.1 µM].

Which “activity change, negative = inhibition” value does the source give for `COc1ccc2nc(NC(=O)CCc3cc(OC)c(OC)c(OC)c3)sc2c1` here?
Its value is inactive: -47.4% [at 46.1 µM].

Which Potency does the source give for `O=C(CCN1C(=O)/C(=C/c2cccs2)SC1=S)Nc1cccc(O)c1` here?
The Potency was inconclusive: 35.5 µM [activator, single point].

Which Potency does the source give for `CC(C)C(=O)Nc1ccccc1C(=O)OCC(=O)c1ccc2c(c1)OCCO2` here?
The Potency was inconclusive: 25.1 µM [inhibitor, single point].

For `O=C1NC(=S)N/C1=C/c1ccc(-c2c(Br)cc([N+](=O)[O-])cc2Br)o1`, which “activity change, negative = inhibition” value is on record?
The value was inactive: -6.5%.

Which Potency does the source give for `CC(=O)c1cccc(NC(=O)N2CCc3ccccc3C2)c1` here?
Its Potency is inconclusive: 3.66 µM [activator, partial curve, poor fit].

With `COc1ccc2c(C(=O)CN3CCSCC3)c[nH]c2c1` as the molecule, how does the Potency read?
The Potency was inconclusive: 5.01 µM [activator, full curve].

Which Potency does the source give for `CCCCCC(=O)Nc1ccc(-c2csc(N)n2)cc1` here?
Its Potency is inconclusive: 3.16 µM [activator, single point].

With `Cn1c(C(C(=O)NCC2CCCO2)N(CCc2ccccc2)C(=O)Cn2nnc3ccccc32)nc2ccccc21` (stereo not drawn) as the molecule, how does the “activity change, negative = inhibition” value read?
Its value is inactive: 16.4%.

With `Cc1ccc(S(=O)(=O)N2CCCOC2CNC(=O)C(=O)NCc2ccncc2)cc1` (stereo not drawn) as the molecule, how does the Potency read?
The Potency was inconclusive: 5.62 µM [activator, single point].

For `CC(=O)Nc1ccc2c(c1)C(=O)c1ccccc1C2=O`, which “activity change, negative = inhibition” value is on record?
Its value is inactive: 3.28%.

With `COc1ccc(N2CCN(CCNC(=O)Nc3ccc([N+](=O)[O-])cc3OC)CC2)cc1` as the molecule, how does the Potency read?
The Potency was inconclusive: 25.1 µM [inhibitor, single point].

With `CN1C(=O)C(O)(CC(=O)c2cccs2)c2ccccc21` (stereo not drawn) as the molecule, how does the “activity change, negative = inhibition” value read?
The value was inactive: 16.5%.

For `CC(=O)NC1C(=O)N=C(SCC(=O)NC2CCCCC2)NC1=O` (stereo not drawn), which “activity change, negative = inhibition” value is on record?
Its value is inactive: 0.331%.

For `CCOC(=O)CN1N=C(/C=C/c2ccc(OC)cc2)CCC1=O`, which Potency is on record?
The Potency was inconclusive: 12.6 µM [activator, single point].

With `O=C(NCCN1CCOCC1)c1ccc(Cl)c(S(=O)(=O)N2CCCC2)c1` as the molecule, how does the “activity change, negative = inhibition” value read?
The value was inactive: -7.91%.

Which Potency does the source give for `CCCCNCCS(=O)(=O)NCc1ccccc1OC` here?
The Potency was inconclusive: 25 µM [inhibitor, single point].

With `Cc1ccc(C)c(NC(=O)CN(C)C(=O)c2cccc(S(=O)(=O)N3CCN(Cc4ccccc4)CC3)c2)c1` as the molecule, how does the Potency read?
The Potency was inconclusive: 0.316 µM [inhibitor, full curve, poor fit].

Which Potency does the source give for `CCOc1ccc(C(C(=O)NCC2CCCO2)N(Cc2cccc(OC)c2)C(=O)c2snc(C(N)=O)c2N)cc1` (stereo not drawn) here?
Its Potency is inconclusive: 5.62 µM [inhibitor, full curve, poor fit].

With `CCS(=O)(=O)NCCc1csc(-c2ccccc2)n1` as the molecule, how does the “activity change, negative = inhibition” value read?
Its value is inactive: 19.7%.

For `O=C(NCc1ccco1)c1ccc2c(=O)n(CCC3=CCCCC3)c(=O)[nH]c2c1`, which Potency is on record?
The Potency was inconclusive: 0.092 µM [inhibitor, full curve, poor fit].

With `CCN(CC)S(=O)(=O)c1ccc(OC)c(-n2cnnn2)c1` as the molecule, how does the Potency read?
The Potency was inconclusive: 14.1 µM [inhibitor, partial curve, poor fit].

Which Potency does the source give for `CCCCn1c(=N)n(CC(O)COc2cccc(C)c2)c2ccccc21` (stereo not drawn) here?
The Potency was inconclusive: 16.4 µM [inhibitor, partial curve, poor fit].

With `N#Cc1cnc(Nc2nc3ccccc3o2)nc1-c1ccccc1` as the molecule, how does the Potency read?
The Potency was inconclusive: 31.6 µM [activator, single point].

With `Cc1cc(OCC(=O)Nc2ncn[nH]2)ccc1Cl` as the molecule, how does the Potency read?
Its Potency is inconclusive: 15.8 µM [activator, partial curve, poor fit].

For `CC(C)C(C(=O)O)N1CCS(=O)(=O)CC1` (stereo not drawn), which “activity change, negative = inhibition” value is on record?
Its value is inactive: 4.16% [at 46.1 µM].

Which Potency does the source give for `COC(=O)c1ccc(/C=C2\SC(=S)N(CCCC(=O)N3CCOCC3)C2=O)cc1` here?
Its Potency is inconclusive: 5.01 µM [activator, partial curve, poor fit].

Which “activity change, negative = inhibition” value does the source give for `CN(C(=O)C1CCCO1)c1nnc(-c2ccccn2)s1` (stereo not drawn) here?
Its value is inactive: 1.8% [at 46.1 µM].

With `O=C(Nc1cccc(S(=O)(=O)N2CCOCC2)c1)C1CCCCN1S(=O)(=O)c1ccccc1` (stereo not drawn) as the molecule, how does the Potency read?
The Potency was inconclusive: 17.8 µM [inhibitor, single point].

For `O=C(/C=C/c1cccs1)c1ccco1`, which “activity change, negative = inhibition” value is on record?
Its value is inactive: 1.54% [at 46.1 µM].

For `Cc1cccc(C)c1NC(=O)c1cccc2c1C(=O)N(C1CCCCC1)C2`, which Potency is on record?
Its Potency is inconclusive: 7.94 µM [inhibitor, partial curve, poor fit].

Which “activity change, negative = inhibition” value does the source give for `Cn1c(=O)oc2cc(S(=O)(=O)NCCC(=O)Nc3ccc(F)cc3F)ccc21` here?
The value was inactive: -6.26% [at 46.1 µM].

For `COc1ccc(CN(C2CCCC2)S(=O)(=O)c2cc(Br)ccc2Br)c(OC)c1`, which Potency is on record?
Its Potency is inconclusive: 0.995 µM [inhibitor, full curve, poor fit].

Which Potency does the source give for `Cn1c(=O)c2[nH]c(CCCc3ccc([N+](=O)[O-])cc3)nc2n(C)c1=O` here?
Its Potency is inconclusive: 5.62 µM [inhibitor, single point].

Which “activity change, negative = inhibition” value does the source give for `Nc1c(C(=O)O)ccc2c1C(=O)c1ccccc1C2=O` here?
The value was inactive: -0.805% [at 46.1 µM].

For `CC1CCc2nc3sc4c(c3c(N)c2C1)CCCC4` (stereo not drawn), which Potency is on record?
The Potency was inconclusive: 18.4 µM [inhibitor, partial curve, poor fit].

For `Cc1c(NC(=O)c2ccc(-c3cccc([N+](=O)[O-])c3)o2)cccc1-c1nc2cc(Cl)ccc2o1`, which “activity change, negative = inhibition” value is on record?
Its value is inactive: 29.5% [at 46.1 µM].

For `CCc1ccc(/C=C2/C(=O)N(c3ccccc3)C(=S)N2CC(=O)OC)s1`, which Potency is on record?
Its Potency is inconclusive: 35.5 µM [inhibitor, single point].

With `CC(=O)c1sc2nc(-c3cccs3)ccc2c1N` as the molecule, how does the “activity change, negative = inhibition” value read?
Its value is inactive: 1.42%.

For `C=CCn1c(O)c(N=NC(=O)CNC(=O)c2ccncc2)c2ccccc21`, which “activity change, negative = inhibition” value is on record?
Its value is inactive: -29.1% [at 46.1 µM].

Which Potency does the source give for `COc1cccc(-n2c(=O)c3sc4ccccc4c3n(CC(=O)NC3CCCCC3)c2=O)c1` here?
Its Potency is inconclusive: 31.6 µM [activator, single point].

Which Potency does the source give for `Cc1ccc(NS(=O)(=O)c2cc(OCC(N)=O)c(C)cc2Cl)cc1` here?
The Potency was inconclusive: 35.5 µM [activator, single point].

Which Potency does the source give for `Cc1ccc(-c2nc(C)sc2CC(=O)OCC(=O)Nc2cccc([N+](=O)[O-])c2)cc1` here?
The Potency was inconclusive: 7.94 µM [activator, partial curve, poor fit].

With `CN1CCN(CCCCOc2ccccc2C=O)CC1` as the molecule, how does the Potency read?
Its Potency is inconclusive: 35.5 µM [inhibitor, partial curve, poor fit].

Which Potency does the source give for `C#CC[N+](C)(C)CCCCCCCCCCCC` here?
Its Potency is inconclusive: 11.2 µM [inhibitor, partial curve, poor fit].

For `Cn1c(=O)c2c(nc(NCCCN3CCOCC3)n2Cc2ccc(Cl)cc2)n(C)c1=O`, which “activity change, negative = inhibition” value is on record?
Its value is inactive: -1.13%.

With `CC(C)CNC(=O)c1coc(=O)c(Br)c1` as the molecule, how does the Potency read?
Its Potency is inconclusive: 29.1 µM [inhibitor, single point].

For `O=C(CNC(=O)c1cccs1)NCC(=O)OCc1ccccc1Cl`, which “activity change, negative = inhibition” value is on record?
The value was inactive: -0.845%.

With `COCc1nc(-c2ccc(-c3ccc(OC)cc3)nc2OC)no1` as the molecule, how does the Potency read?
Its Potency is inconclusive: 20.6 µM [activator, single point].

Which Potency does the source give for `CCOc1ccccc1-c1cc(C(=O)N/N=C/c2ccc(O)c(OC)c2)c2ccccc2n1` here?
Its Potency is inconclusive: 5.01 µM [inhibitor, partial curve, poor fit].

For `CCc1nc2nc(C)c(NS(=O)(=O)c3ccc(C(C)(C)C)cc3)c(=O)n2[nH]1`, which “activity change, negative = inhibition” value is on record?
The value was inactive: -3.52% [at 46.1 µM].

Which “activity change, negative = inhibition” value does the source give for `Cc1cc(F)ccc1NCc1ccc([N+](=O)[O-])cc1` here?
Its value is inactive: -25.7% [at 46.1 µM].

For `CC(C)Oc1cccc(-c2cc(C(=O)NC(=S)N(C)c3ccccc3C(=O)O)c3ccccc3n2)c1`, which Potency is on record?
Its Potency is inconclusive: 35.5 µM [inhibitor, single point].

Which Potency does the source give for `COc1ccc(/C=N/NC(=O)CNC(=O)C2COc3ccccc3O2)cc1OC` (stereo not drawn) here?
The Potency was inconclusive: 4.47 µM [inhibitor, full curve, poor fit].
